Data source: PubChem BioAssay AID504774 (Drosophila RNAi Screening Center, 2011)

- Assay: 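Genes required for cells to withstand methyl methanesulphonate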 (primary screen)
- Cell system: Drosophila Kc167 cells
- Reagent: long dsRNA against Drosophila genes, about 0.25 µg dsRNA per well
- Timing: about 6 days: 3 days knock-down, then 3 days with or without MMS
- Conditions: methyl methanesulphonate 0.004% (w/v) for 3 days after knock-down
- Measured: 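ATP-dependent luminescence as a measure of live cells in MMS-exposed wells, quantile normalised within each plate, with replicate values also given as a mean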
- Reading the numbers: mean viability with MMS: higher = more surviving cells after MMS
The deposit covers about 23,000 reagents; below is an unselected part of those with a known target gene and a result. 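Values are quantile-normalised luminescence on an arbitrary scale; higher means more cells surviving MMS.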 Reagents against one gene are numbered here. Names joined by + are all predicted targets of the reagent. Not all columns of the deposit are shown.

target gene | dsRNA no. | mean viability with MMS
tay | 1 | 3.55e6
CG33061 | 1 | 3.66e6
CG33061 | 2 | 3.47e6
Cyp303a1 | 1 | 3.41e6
mfas | 1 | 3.63e6
robl62A | 1 | 3.56e6
CG7739 | 1 | 3.56e6
His1:CG33816 + His1:CG33828 + His1:CG33819 + 21 more | 1 | 3.33e6
CG12384 | 1 | 3.84e6
CG33475 | 1 | 3.63e6
Hmr | 1 | 3.61e6
lds | 1 | 3.51e6
Sec63 | 1 | 3.52e6
PSMG1 | 1 | 3.61e6
mtDNA-helicase | 1 | 3.46e6
klar | 1 | 3.40e6
klar | 2 | 3.49e6
S6KL | 1 | 3.74e6
S6KL | 2 | 3.54e6
S6KL | 3 | 3.37e6
Bro | 1 | 3.58e6
cocoon | 1 | 3.58e6
Dhod | 1 | 3.63e6
CG34033 | 1 | 3.45e6
Ufd1 | 1 | 3.46e6
CG4294 | 1 | 3.39e6
CG17202 | 1 | 3.43e6
CG17202 | 2 | 2.89e6
CG6891 | 1 | 3.80e6
Pgm2b | 1 | 3.52e6
CG6923 | 1 | 3.75e6
mRpL49 | 1 | 3.60e6
CG3301 | 1 | 3.49e6
CG6321 | 1 | 3.82e6
Alg7 | 1 | 3.66e6
Alg7 | 2 | 3.55e6
Ndc80 | 1 | 3.35e6
Ndc80 | 2 | 3.01e6

Next part (9 carried over from the part before).
target gene | dsRNA no. | mean viability with MMS
Pgm2b | 1 | 3.52e6
CG6923 | 1 | 3.75e6
mRpL49 | 1 | 3.60e6
CG3301 | 1 | 3.49e6
CG6321 | 1 | 3.82e6
Alg7 | 1 | 3.66e6
Alg7 | 2 | 3.55e6
Ndc80 | 1 | 3.35e6
Ndc80 | 2 | 3.01e6
pbl | 1 | 3.58e6
sr | 1 | 3.51e6
sr | 2 | 3.12e6
CG13155 | 1 | 3.52e6
Ktch | 1 | 3.61e6
CG11583 | 1 | 3.45e6
Snx21 | 1 | 3.51e6
CG10324 | 1 | 3.40e6
SMSr | 1 | 3.67e6
SMSr | 2 | 3.69e6
CG12661 | 1 | 3.48e6
GCC88 | 1 | 3.67e6
Dfd | 1 | 3.71e6
CG2336 | 1 | 3.59e6
Ras85D | 1 | 3.40e6
P5cr | 1 | 3.44e6
inaF-B | 1 | 3.64e6
cathD | 1 | 3.50e6
spag4 | 1 | 3.41e6
CG13364 | 1 | 3.73e6
CG13364 | 2 | 3.58e6
Tpi | 1 | 3.50e6
CG11699 | 1 | 3.51e6
CG10005 | 1 | 3.43e6
CG17168 | 1 | 3.30e6
mon2 | 1 | 3.76e6
Hsp23 | 1 | 3.55e6
rn | 1 | 2.88e6
rn | 2 | 3.54e6
rn | 3 | 3.50e6
rn | 4 | 3.58e6
rn | 5 | 3.29e6
